Experimental data from PubChem BioAssay AID1471 (National Center for Advancing Translational Sciences (NCATS), 2008).
The whole screen tested about 230,000 compounds, of which about 310 (0.13%) were called active. Inconclusive means that the source gave no clear call. Such entries were picked first, then a sample of the others. The call rests on the fitted dose curve; in most records, active means well fitted activation curve with a large enough effect; inconclusive means small, poorly fitted or top-dose-only effect; inactive means no such curve, though single readings can be large or run the other way. A potency beside an inconclusive call is a rough fit, not a confirmed value.

Experiment: qHTS Multiplex Assay to Identify Dual Action Probes in a Cell Model of Huntington: Cytoprotection (ATP); further: nearly all actives have a fitted effect of over 45% in size;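 on cytoprotection (ATP increase): toxic huntingtin expression switched on by the ecdysone agonist tebufenozide; % of control where 0% means no effect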
Details: PC12 HTT-Q103 induced, ATP luminescence, 40 h; cytoprotection (ATP increase): at 56.4 µM (top of the series) unless noted
Outline: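 Stable PC12 Q103-GFP cells in serum-supplemented, phenol red-free DMEM; induction by tebufenozide at 100 nM final; compound dose series; cell viability quantified luminescently from ATP.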
Potency means the concentration at half of the fitted maximal effect.

Row | SMILES | Potency | cytoprotection (ATP increase)
1 | Cc1[nH]c2ccccc2c1CCC(N)=O | inconclusive: 1.58 µM [activator, single point] | 
2 | COC(=O)C1=C(C(=O)OC)C(c2cc(Br)ccc2O)c2sc(=O)[nH]c2S1 (centres undefined) | inconclusive: 0.562 µM [activator, single point] | 
3 | Cc1cnc(C(=O)N2CCCC(C(=O)c3ccc(C(F)(F)F)cc3)C2)cn1 (centres undefined) | inconclusive: 5.62 µM [activator, single point] | 
4 | Cc1noc(C)c1C(=O)N1CCC2(CC1)CCN(c1ccccn1)CC2 | inconclusive: 3.98 µM [activator, partial curve, poor fit] | 
5 | COC(=O)N1CCC2(CCCN(C(=O)Nc3cccc(F)c3)C2)CC1 | inconclusive: 10 µM [activator, partial curve] | 
6 | Cc1cccc(C(=O)NCCNC(=O)c2cccc(C)c2)c1 | inconclusive: 5.62 µM [activator, single point] | 
7 | C=C1CCC2[C@](C)(CO)C(O)CC[C@]2(C)C1C/C=C1/C(=O)OCC1O (some centres undefined) | inconclusive: 14.1 µM [activator, partial curve, poor fit] | 
8 | O=c1[nH]c(/C=C2\C=Nc3ccccc32)c(O)n1Cc1ccccc1F |  | inactive: -61.3% [at 10 µM]
9 | CCCCCCCCCCCC1=C(O)C(=O)C=C(O)C1=O | inconclusive: 7.94 µM [activator, partial curve, poor fit] | 
10 | CCCn1cc(CN2CCN(Cc3ccc(C)o3)C(CCO)C2)c(C)n1 (centres undefined) | inconclusive: 0.0891 µM [activator, full curve, poor fit] | 
11 | CCc1ccc(NC(=O)Cn2nc(C(F)(F)F)c3c2CCC3)cc1 |  | inactive: 9.68%
12 | Cc1c(C(=O)Oc2ccc(-c3cnc4ccccc4n3)cc2)cccc1[N+](=O)[O-] | inconclusive: 35.5 µM [activator, single point] | 
13 | COCCNC(=O)c1ccc(C2SCC(=O)N2Cc2ccco2)cc1 (centres undefined) |  | inactive: -0.817% [at 10 µM]
14 | COC(=O)c1cc(OC)c(OC)cc1NC(=O)c1cccc(OC)c1OC |  | inactive: 3.67% [at 10 µM]
15 | c1ccc([C@@H]2CN3CCSC3=N2)cc1 | inconclusive: 14.1 µM [activator, single point] | 
16 | CCc1cccc(C)c1NC(=O)CSc1nc2ccc(N3C(=O)c4ccccc4C3=O)cc2s1 |  | inactive: -1.1%
17 | O=C(C1CCCN(S(=O)(=O)c2ccc(F)cc2)C1)N(Cc1cccs1)C1CC1 (centres undefined) |  | inactive: -4.36% [at 10 µM]
18 | COc1ccc(Cl)cc1N(C(C)C(=O)O)S(C)(=O)=O (centres undefined) | inconclusive: 5.62 µM [activator, single point] | 
19 | CC(=O)OC1CC(OC(C)=O)[C@]2(C)C(CC(OC(C)=O)[C@@]3(C)C4=CC(=O)OC(c5ccoc5)[C@]4(C)CCC32)C1(C)C (some centres undefined) | inconclusive: 0.891 µM [activator, full curve, poor fit] | 
20 | COc1cc2c(cc1OC)C(=O)Cc1ccc3c(c1CN(C)CC2)OCO3 | inconclusive: 1 µM [activator, partial curve] | 
21 | Cc1ccc(S(=O)(=O)ON=C2CCN(S(=O)(=O)c3ccccc3)CC2)cc1 |  | inactive: -7.48%
22 | O=C(CSc1ccccc1)NCCSCc1ccccc1 |  | inactive: 15.8% [at 10 µM]

Row | SMILES | Potency | cytoprotection (ATP increase)
23 | Cc1cc(C)nc(SCC(=O)Nc2ncc(C(F)(F)F)cc2Cl)n1 | inconclusive: 1.12 µM [activator, single point] | 
24 | O=C(c1ccco1)N1CCN(C(c2ccccc2Cl)c2nnnn2Cc2ccco2)CC1 (centres undefined) | inconclusive: 3.55 µM [activator, single point] | 
25 | CC(C)(C)CC(=O)NC(=S)Nc1ccccc1C(F)(F)F |  | inactive: -22.5%
26 | Cc1ccc(C2=NNC(=Nc3ccc(F)cc3)SC2)cc1 | inconclusive: 28.2 µM [activator, single point] | 
27 | O=C(Cn1ccc([N+](=O)[O-])n1)N1CCCCC1 | inconclusive: 3.55 µM [activator, partial curve] | 
28 | C/C=C1/C(=O)C[C@H]2[C@@H]3CCC4=CC(=O)CC[C@]4(C)[C@H]3CC[C@]12C |  | inactive: -57.1%
29 | CCN1CCN(CC(O)COCc2cc(OC)c(OC)c(OC)c2)CC1 (centres undefined) | inconclusive: 1.26 µM [activator, single point] | 
30 | COc1cc(CC(=O)OCC(=O)Nc2sccc2C(N)=O)cc(OC)c1OC |  | inactive: 33.4% [at 10 µM]
31 | C/C(CC(=O)Nc1ccc(Cl)c(Cl)c1)=N\NC(N)=S | inconclusive: 3.55 µM [activator, single point] | 
32 | C=CCCCCCCCCC(=O)O | inconclusive: 0.1 µM [activator, full curve, poor fit] | 
33 | COc1ccc(/C=C/C(=O)NCCSCc2ccco2)cc1 |  | inactive: 8.16% [at 0.074 µM]
34 | O=C1C=CC(=O)N1CCNc1ncc(C(F)(F)F)cc1Cl |  | inactive: -7.36% [at 10 µM]
35 | COc1ccc(NC(=O)[C@H](C)NC(N)=O)cc1S(=O)(=O)Nc1cc(C)ccc1Br |  | inactive: -10.7%
36 | COc1ccccc1CNc1ccnc(-c2cccc(C#N)c2)n1 | inconclusive: 35.5 µM [activator, single point] | 
37 | O=[N+]([O-])c1cccc(/C=N/Nc2nc(N3CCCCC3)nc(N3CCCCC3)n2)c1 |  | inactive: -30%
38 | COc1ccc(NS(=O)(=O)c2ccc(N3CCCC3)c(NC(=S)Nc3cccc(C)c3C)c2)cc1 |  | inactive: 11.9% [at 10 µM]
39 | CC(=O)OCC1=C(C(=O)O)N2C(=O)[C@@H](NC(=O)Cc3cccs3)[C@H]2SC1 | inconclusive: 0.0891 µM [activator, full curve, poor fit] | 
40 | COc1cc(C(C(=O)NCc2ccccc2)N(Cc2ccco2)C(=O)c2cnccn2)cc(OC)c1OC (centres undefined) |  | inactive: -29.8%
41 | NC(=O)c1sc2nc3c(c(-c4ccco4)c2c1N)CCC3 | inconclusive: 7.94 µM [activator, full curve] | 
42 | N#C/C(=C\Nc1ccccn1)C(=O)C1CC1 |  | inactive: -38.1% [at 10 µM]
43 | Cc1ccc(Cl)cc1N1CCN(Cc2nnnn2C2CCCCC2)CC1 | inconclusive: 12.6 µM [activator, single point] | 
44 | CC1CCN(c2cc(N3CCN(C(=O)c4ccc(F)c(F)c4)CC3)c([N+](=O)[O-])cc2F)CC1 | inconclusive: 1.12 µM [activator, single point] | 

Single entries from above:
Entry of CCCn1cc(CN2CCN(Cc3ccc(C)o3)C(CCO)C2)c(C)n1 (centres undefined) under Potency: inconclusive: 0.0891 µM [activator, full curve, poor fit]
Entry of COc1ccc(NS(=O)(=O)c2ccc(N3CCCC3)c(NC(=S)Nc3cccc(C)c3C)c2)cc1 under cytoprotection (ATP increase): inactive: 11.9% [at 10 µM]
